Source: paper PMC6166933
These are yes or no findings as the source states them, for the method shown. In cells and extracts the contact can be indirect. Some binding calls cover weakened binding; strength is not graded here.

The chains behind the UniProt entries cited, without tags or fusion partners.
UniProt P26196: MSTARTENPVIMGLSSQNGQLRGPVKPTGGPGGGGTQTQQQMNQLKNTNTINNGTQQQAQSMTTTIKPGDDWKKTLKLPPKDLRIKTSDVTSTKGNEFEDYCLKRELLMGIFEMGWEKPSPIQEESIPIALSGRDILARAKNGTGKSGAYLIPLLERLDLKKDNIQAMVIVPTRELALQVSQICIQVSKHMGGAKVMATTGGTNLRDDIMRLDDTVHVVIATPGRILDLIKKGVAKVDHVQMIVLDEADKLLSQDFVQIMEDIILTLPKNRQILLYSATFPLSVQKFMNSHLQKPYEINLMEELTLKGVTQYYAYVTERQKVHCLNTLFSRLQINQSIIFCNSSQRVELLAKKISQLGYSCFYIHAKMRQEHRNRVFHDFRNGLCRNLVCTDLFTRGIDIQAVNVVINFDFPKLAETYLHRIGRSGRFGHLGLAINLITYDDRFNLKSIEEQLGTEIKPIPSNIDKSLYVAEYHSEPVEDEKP
UniProt P10155: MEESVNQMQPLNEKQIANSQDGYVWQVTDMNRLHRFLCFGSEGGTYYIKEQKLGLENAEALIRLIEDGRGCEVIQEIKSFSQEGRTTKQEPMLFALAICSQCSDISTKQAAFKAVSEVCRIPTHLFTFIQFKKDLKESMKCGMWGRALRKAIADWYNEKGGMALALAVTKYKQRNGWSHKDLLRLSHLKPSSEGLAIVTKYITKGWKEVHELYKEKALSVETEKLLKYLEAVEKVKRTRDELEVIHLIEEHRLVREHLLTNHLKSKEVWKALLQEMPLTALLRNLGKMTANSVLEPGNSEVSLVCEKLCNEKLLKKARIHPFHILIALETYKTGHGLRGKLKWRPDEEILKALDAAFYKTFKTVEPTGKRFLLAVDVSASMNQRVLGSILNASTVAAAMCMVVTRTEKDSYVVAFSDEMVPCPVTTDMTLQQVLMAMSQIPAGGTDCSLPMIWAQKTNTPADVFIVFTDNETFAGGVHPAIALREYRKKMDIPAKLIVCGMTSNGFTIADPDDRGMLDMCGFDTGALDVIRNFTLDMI
UniProt Q8NDV7: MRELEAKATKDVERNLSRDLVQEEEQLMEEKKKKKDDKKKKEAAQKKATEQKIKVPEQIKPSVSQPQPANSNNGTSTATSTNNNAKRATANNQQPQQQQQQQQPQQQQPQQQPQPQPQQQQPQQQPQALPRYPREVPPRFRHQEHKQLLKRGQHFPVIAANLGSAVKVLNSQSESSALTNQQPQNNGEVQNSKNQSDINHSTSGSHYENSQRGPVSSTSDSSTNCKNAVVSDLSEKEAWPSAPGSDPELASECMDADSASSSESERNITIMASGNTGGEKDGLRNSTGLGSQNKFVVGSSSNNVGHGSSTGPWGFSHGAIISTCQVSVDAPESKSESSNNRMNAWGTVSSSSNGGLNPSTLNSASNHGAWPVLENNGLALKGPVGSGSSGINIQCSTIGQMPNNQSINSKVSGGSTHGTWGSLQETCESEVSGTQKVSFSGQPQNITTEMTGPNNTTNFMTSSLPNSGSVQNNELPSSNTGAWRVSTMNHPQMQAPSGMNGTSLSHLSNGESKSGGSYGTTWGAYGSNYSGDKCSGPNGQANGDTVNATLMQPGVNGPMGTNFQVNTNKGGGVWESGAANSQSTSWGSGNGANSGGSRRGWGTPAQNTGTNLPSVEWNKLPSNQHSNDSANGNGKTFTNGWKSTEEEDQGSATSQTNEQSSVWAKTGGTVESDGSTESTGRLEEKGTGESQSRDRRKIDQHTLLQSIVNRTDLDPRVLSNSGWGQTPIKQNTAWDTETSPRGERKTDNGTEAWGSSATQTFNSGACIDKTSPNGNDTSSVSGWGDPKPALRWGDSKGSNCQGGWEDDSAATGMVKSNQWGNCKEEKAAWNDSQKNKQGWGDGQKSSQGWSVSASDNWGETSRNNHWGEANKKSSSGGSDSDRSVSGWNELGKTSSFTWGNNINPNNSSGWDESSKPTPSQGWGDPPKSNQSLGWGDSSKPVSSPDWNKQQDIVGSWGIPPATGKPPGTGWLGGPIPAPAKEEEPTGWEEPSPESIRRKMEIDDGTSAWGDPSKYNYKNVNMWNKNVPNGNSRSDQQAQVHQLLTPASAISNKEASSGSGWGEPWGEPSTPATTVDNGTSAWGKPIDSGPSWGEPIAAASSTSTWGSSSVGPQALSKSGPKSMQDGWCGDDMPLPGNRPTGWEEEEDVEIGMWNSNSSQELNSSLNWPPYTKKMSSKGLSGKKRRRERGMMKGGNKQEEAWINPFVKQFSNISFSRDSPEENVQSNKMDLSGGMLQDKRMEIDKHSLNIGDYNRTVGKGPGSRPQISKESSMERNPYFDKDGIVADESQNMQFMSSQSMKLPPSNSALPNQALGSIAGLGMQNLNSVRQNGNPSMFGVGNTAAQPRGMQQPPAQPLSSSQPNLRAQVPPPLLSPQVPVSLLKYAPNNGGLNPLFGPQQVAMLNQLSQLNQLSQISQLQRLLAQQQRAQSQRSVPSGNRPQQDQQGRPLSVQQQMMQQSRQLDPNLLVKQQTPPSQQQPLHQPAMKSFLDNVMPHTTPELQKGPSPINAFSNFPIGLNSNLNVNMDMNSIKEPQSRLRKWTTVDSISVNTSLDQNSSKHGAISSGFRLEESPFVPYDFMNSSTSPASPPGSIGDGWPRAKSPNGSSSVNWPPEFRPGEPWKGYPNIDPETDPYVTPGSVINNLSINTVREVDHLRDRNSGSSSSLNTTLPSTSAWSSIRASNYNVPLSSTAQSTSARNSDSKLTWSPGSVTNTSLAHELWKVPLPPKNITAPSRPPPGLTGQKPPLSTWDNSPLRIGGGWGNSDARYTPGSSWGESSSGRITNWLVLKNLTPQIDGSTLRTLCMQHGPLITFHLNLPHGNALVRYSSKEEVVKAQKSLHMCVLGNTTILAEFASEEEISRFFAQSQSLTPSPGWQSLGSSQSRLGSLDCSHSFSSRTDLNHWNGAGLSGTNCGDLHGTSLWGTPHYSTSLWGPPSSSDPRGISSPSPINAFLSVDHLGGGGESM

Target: DDX6 (human (endogenous in TIG-1)) (UniProt P26196)
Experiment: co-IP; TIG-1 fibroblast protein lysates incubated with anti-RO60 or anti-DDX6 antibody-conjugated magnetic beads for 2 hr at 4°C, immunoblot; growth phase; also OSKM- and siRNA (siNeg, siRNY1)-treated cells on Day 3 (more RO60-DDX6 and less DDX6-TNRC6A after RNY1 knock-down)

binding	Substance
binds	Ro 60-kDa protein (RO60) (from UniProt P10155 1-538)
binds	TNRC6A (from UniProt Q8NDV7 1-1962)
